This note sets out measurements from patent publication US4292319A, “Antiphlogistic pharmaceutical compositions and method of use” (Boehringer Ingelheim GmbH, priority 1977, dated 1981).

The experiment has as its system stomach of the rat. The experiment in a line: Test for ulcerogenic effect on the stomach of the rat. It counts as in vivo, rat (Chbb:THOM). The note with it: added to antiphlogistics, oral. The procedure:
(1) Test for ulcerogenic effect on the stomach of the rat
The test was carried out on male and female (1:1) Chbb:THOM-rats with a body weight between 130 to 150 gm at the beginning of the study.
The test substances (non-steroidal anti-phlogistics or mixtures of these antiphlogistics with pirenzepine dihydrochloride) were administered as triturations in 1% tylose (1 ml/100 gm animal) by way of an esophageal tube once a day on three successive days.
Four hours after the last administration (i.e. on the 3rd day) the animals were killed by an over-dose of ether. The stomachs wer dissected, cut along the great curvature and washed under flowing water for subsequent macroscopic evaluation.

Regarding `CN1CCN(CC(=O)N2c3ccccc3C(=O)Nc3cccnc32)CC1.Cl.Cl` [A, 5,11-dihydro-11-[(4-methyl-1-piperazinyl)-acetyl]-6H-pyrido[2,3-b] [1,4] benzodiazepin-6-one dihydrochloride], the “effect on ulcerogenicity (ED50) of non-steroidal antiphlogistics” value was “weakened in dose-dependent manner” (dihydrochloride) and “dose-dependent increase” (listed as pirenzepine dihydrochloride).
